The values that follow come from the supplement of paper PMC9254222.

The experiment deals with HEK293T (UBE3A T485A transfected, BAR Wnt reporter). Briefly: Renilla luciferase signal (cell health) relative to plate median (fold (linear ratio)); higher = higher Renilla signal. Conditions: 24 h. An outline of the steps: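 HEK293T cells carrying a transfected BAR firefly luciferase Wnt reporter, TK-Renilla and an expression plasmid were exposed to chemicals at 0.01–100 uM for 24 h, with dosing four hours after transfection. Readout used Dual-Glo luciferase. The firefly/Renilla ratio defined Wnt activity and raw Renilla defined cell health, each median-centred per plate. Figures are means of four biological replicates.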

What follows is the remainder of the data, with few or none of the highest values.

Regarding `CCCCCCCC1CCC(=O)O1` (stereo not drawn) [5-Heptyldihydro-2(3H)-furanone], the Renilla luciferase signal (concentration: 0.1 uM) turned out to be 1.08, the Renilla luciferase signal (concentration: 1 uM) turned out to be 1.01, the Renilla luciferase signal (concentration: 10 uM) worked out at 1.05 and the Renilla luciferase signal (concentration: 100 uM) stood at 1.02.
On to `CS(=O)(=O)c1ccc([C@@H](CC2CCCC2)C(=O)Nc2cnccn2)cc1Cl`, for which the Renilla luciferase signal (concentration: 0.1 uM) stood at 1.04, the Renilla luciferase signal (concentration: 1 uM) stood at 0.989, the Renilla luciferase signal (concentration: 10 uM) came to 1.01 and the Renilla luciferase signal (concentration: 100 uM) was 0.195.
